Consider three substances from paper PMC3497071.

By UniProt entry, the sequences of proteins in these tests, tags left out.
UniProt P05429: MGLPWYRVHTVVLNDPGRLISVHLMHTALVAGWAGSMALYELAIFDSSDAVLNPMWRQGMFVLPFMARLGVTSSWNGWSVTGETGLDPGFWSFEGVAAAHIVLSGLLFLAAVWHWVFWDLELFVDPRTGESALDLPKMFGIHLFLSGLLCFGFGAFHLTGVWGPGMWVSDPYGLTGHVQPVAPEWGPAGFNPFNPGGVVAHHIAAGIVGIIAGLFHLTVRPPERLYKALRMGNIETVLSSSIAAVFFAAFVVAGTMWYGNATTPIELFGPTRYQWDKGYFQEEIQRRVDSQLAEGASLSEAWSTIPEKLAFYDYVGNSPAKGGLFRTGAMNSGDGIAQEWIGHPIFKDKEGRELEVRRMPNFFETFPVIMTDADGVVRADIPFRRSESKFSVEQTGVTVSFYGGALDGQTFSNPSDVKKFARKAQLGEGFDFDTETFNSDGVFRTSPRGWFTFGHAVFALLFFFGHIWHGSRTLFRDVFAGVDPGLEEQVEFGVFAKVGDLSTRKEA
UniProt P09190: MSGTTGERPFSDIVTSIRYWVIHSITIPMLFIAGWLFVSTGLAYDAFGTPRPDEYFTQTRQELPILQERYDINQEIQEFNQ
UniProt P14835: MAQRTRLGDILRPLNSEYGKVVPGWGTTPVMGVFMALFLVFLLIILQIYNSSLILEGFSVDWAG

In assay [1] the target is His-tagged CP47 (CP47 apopolypeptide with a C-terminal His6-tag) (Synechocystis sp. PCC 6803) (UniProt P05429). In words: co-purification, cyt b-559 found by reduced-minus-oxidized difference spectroscopy; isolated RC47-His (10 µg Chl a) in KPN buffer with 1 µM ferricyanide, dithionite added, 520-600 nm.
For assay [2] the target is unchanged. In words: pull-down; RC47-His isolated by the His6-tag of CP47: Ni2+-affinity chromatography of detergent-solubilized thylakoid membranes of ΔCP43/CP47-His, then DEAE anion exchange (KPN buffer, 0.04% β-DM, MgSO4 gradient 5-200 mM); SDS-PAGE and immunoblots. (In general: A western blot detects proteins with antibodies after separation by electrophoresis.)
In assay [3] the target is T1, His-tagged Psb28 (Synechocystis sp. PCC 6803) (UniProt Q55356).
T1 sequence: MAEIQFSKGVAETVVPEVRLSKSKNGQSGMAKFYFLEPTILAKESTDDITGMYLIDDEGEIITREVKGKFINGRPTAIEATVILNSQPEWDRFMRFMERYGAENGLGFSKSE
Nature of the assay: pull-down; His-tagged Psb28 isolated from thylakoid membranes as described in ref. 26; preparation on CN-PAGE/SDS-PAGE, Sypro Orange.

These are yes or no findings as the source states them, for the method shown. For part of these data: In cells and extracts the contact can be indirect. Some results given as binding are weak or reduced against the parent protein; the word gives no strength. For part of these data: Where a sequence is shown, tags or fusion partners need not be part of it.

For PsbE (from UniProt P09190 1-81), in assay [1], the binding result is “binds”.

Take PsbH (from UniProt P14835 1-64): the binding result in assay [2] is “binds”.

Regarding “RC47 assembly complex (PSII core complex lacking CP43), untagged (from UniProt P05429 1-507; P16033 1-344; P09192 1-352; P09190 1-81; P09191 1-44; P14835 1-64; Q54697 1-38; Q55354 1-39; P72701 1-35; P74787 1-31; P72575 1-39; P73676 1-39)”, the binding entry in assay [3] is recorded as “binds”.
